# Measured values from PubChem BioAssay AID1487 (National Center for Advancing Translational Sciences (NCATS), 2009).
# Some of the results follow. Shown are side measurements of this screen, not its main read-out; they come without a call. Compounds called inactive in the main read-out are mostly missing here. Potencies come from curve fits of mixed quality, noted in brackets.
# Test: qHTS Assay for Modulators of Lamin A Splicing
# Conditions: HeLa LMNA splicing GFP/RFP minigene ratio, 48 h
# How it was run: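 S3 HeLa cells stably expressing lamin A-EGFP splicing minigene plus DsRed2, 600 cells/well, 48 h compound exposure at 37C. Laser-scanning cytometry; analysed as GFP (500-530 nm)/RFP (575-640 nm) total intensity ratio; 0.5% DMSO vehicle.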
# [1] = measured here: RFP viability control channel
# [2] = measured here: GFP splicing reporter channel
SMILES,AC50 [1],AC50 [2]
Nc1c(C(=O)NCCN2CCOCC2)c2nc3ccccc3nc2n1-c1ccccc1,"14.1 µM [rising, single point]",–
CC1=NN(C(N)=S)C(=O)C1N=Nc1c(C)cc(C)cc1C (stereo not given),–,"3.98 µM [falling, single point]"
O=c1nc(Nc2cccc(Cl)c2)oc2cc(Cl)oc(=O)c12,"3.16 µM [falling, full curve, poor fit]",–
C=CCOC(=O)c1c(C)nc2cc3c(cc2c1C)OCO3,"35.5 µM [rising, single point]","25.1 µM [rising, single point]"
COc1c(Cl)cc(Cl)cc1CNc1ccc(S(N)(=O)=O)cc1,"35.5 µM [falling, single point]",–
CCCc1cc(-c2nc(N)ncc2-c2ccc3c(c2)OCCCO3)c(O)cc1OC,"35.5 µM [rising, single point]",–
COc1ccc(S(=O)(=O)N2CCCN(S(=O)(=O)c3ccc(OC)c(C)c3)CC2)cc1C,"12.6 µM [rising, partial curve]","35.5 µM [falling, single point]"
Cc1cc(/C=C2/SC(=S)N(c3ccc([N+](=O)[O-])cc3)C2=O)c(C)n1-c1cccnc1,"1.26 µM [rising, full curve]",–
O=[N+]([O-])c1ccc(Sc2cccc3cccnc23)cc1,"14.1 µM [rising, single point]","12.6 µM [rising, single point]"
CCCCN(CC)c1nc(-c2ccccc2F)nc2ccccc12,"14.1 µM [rising, single point]",–
O=C(COC(=O)CCSc1ccccc1)NCc1ccccc1Cl,"0.0398 µM [falling, full curve, poor fit]","0.0631 µM [falling, full curve, poor fit]"
CCN(CC)C(=O)c1ccc(S(=O)(=O)N2CCC(c3nc4ccccc4s3)CC2)cc1,"3.16 µM [rising, full curve]",–
Cc1ccc(S(=O)(=O)CC#CCOC(=O)c2ccc([N+](=O)[O-])cc2)cc1,"35.5 µM [falling, single point]","35.5 µM [falling, single point]"
Cc1ccc(OCCn2cc(/C(N)=N/O)c3ccccc32)cc1C,"15.8 µM [rising, partial curve]","14.1 µM [rising, partial curve, poor fit]"
CC1(c2ccccn2)Nc2ccccc2-c2nc3ccccc3n21 (stereo not given),"14.1 µM [rising, single point]",–
Cc1nn(Cc2ccc(Cl)c(Cl)c2)c(C)c1NC(=O)c1sc2ccccc2c1Cl,"11.2 µM [rising, partial curve, poor fit]","12.6 µM [rising, partial curve, poor fit]"
COc1cc(C(=O)ON=C2C=C(C)C(=O)C(C)=C2)cc(OC)c1OC,"35.5 µM [falling, single point]","35.5 µM [falling, single point]"
Cc1nc2ccc(NC(=O)c3ccc(S(=O)(=O)N(C)c4ccccc4)cc3)cc2s1,"2 µM [rising, full curve]","1.41 µM [rising, full curve, poor fit]"
COc1ccc(O[C@H]2C=C[C@@H](c3ccccc3)O[C@@H]2COC(=O)CC/C(C)=N/O[C@@H](C)c2cn([C@H](CO)Cc3ccccc3)nn2)cc1,"14.1 µM [rising, partial curve]","10 µM [rising, partial curve]"
CCOC(=O)COc1ccc2ccccc2c1/C=C/[N+](=O)[O-],"11.2 µM [rising, partial curve]",–
CC(=O)c1sc(-c2cccc(Cl)c2)nc1C,–,"0.0158 µM [falling, full curve]"
Cc1ccc(S(=O)(=O)c2ccc(Cl)cc2)cc1S(=O)(=O)N1CCN(C)CC1,"12.6 µM [rising, single point]",–
CC(C)CCNC(=O)Cn1c(-c2cccs2)cc2cc(F)ccc21,"0.02 µM [rising, full curve, poor fit]",–
Cc1cccc(-n2cc(-c3ccccc3)c3c(=O)[nH]cnc32)c1,"17.8 µM [rising, single point]",–
CC1(C)OC(=O)C(=NNc2ccc(O)cc2)C(=O)O1,"15.8 µM [rising, partial curve]","28.2 µM [rising, single point]"
CCN1C(=O)N(C)[C@@H](c2ccccc2)C(C(=O)OC)=C1C,"0.398 µM [falling, full curve, poor fit]","1.58 µM [falling, partial curve]"
FC(F)(F)c1cccc(NC(=S)NNC(=S)NCc2ccccc2)c1,"35.5 µM [rising, single point]","20 µM [rising, single point]"

# Some values from the entries so far.
# Entry of CC1=NN(C(N)=S)C(=O)C1N=Nc1c(C)cc(C)cc1C (stereo not given) under AC50 [2]: 3.98 µM [falling, single point]
# Entry of CCOC(=O)COc1ccc2ccccc2c1/C=C/[N+](=O)[O-] under AC50 [1]: 11.2 µM [rising, partial curve]
# Entry of CCN(CC)C(=O)c1ccc(S(=O)(=O)N2CCC(c3nc4ccccc4s3)CC2)cc1 under AC50 [1]: 3.16 µM [rising, full curve]

# Remaining list, next part

SMILES,AC50 [1],AC50 [2]
CC(C)C(OC(=O)c1cc2occc2n1C)C(=O)NCc1ccc2c(c1)OCO2 (stereo not given),"35.5 µM [rising, single point]",–
CC(C)(CS)C(=O)N1CCC[C@H]1C(=O)O,"0.398 µM [falling, full curve, poor fit]","0.224 µM [falling, full curve]"
Cc1ccc2nc(-c3cccc(NS(C)(=O)=O)c3)cc(-c3ccccc3)c2c1,"11.2 µM [falling, partial curve]","11.2 µM [falling, partial curve]"
C/C(=N\NC(=O)CNc1ccccc1)c1ccccc1,–,"0.0251 µM [rising, full curve, poor fit]"
Cc1ccc2oc(C(=O)NCc3ccc4c(c3)OCO4)c(C)c2c1,"35.5 µM [rising, single point]","31.6 µM [rising, single point]"
Cc1ccc(CNC(=O)c2ccc(CN3CC(=O)N4CCCCC4C3=O)cc2)cc1 (stereo not given),"0.0282 µM [falling, full curve, poor fit]",–
COC(=O)c1ccc(OS(=O)(=O)c2ccc(NC(C)=O)cc2)cc1,"35.5 µM [rising, single point]",–
CCOC(=O)N1CCN(c2ccc(S(=O)(=O)N(Cc3ccccc3)Cc3ccccc3)cn2)CC1,"3.55 µM [rising, full curve, poor fit]",–
O=C(Nc1cccc(-c2cn3ccccc3n2)c1)c1cccc(Cl)c1,"35.5 µM [falling, single point]",–
COc1ccc(N2CCN(C(=O)c3cc(N4C(=O)C5C6CCC(C6)C5C4=O)ccc3Cl)CC2)cc1 (stereo not given),"14.1 µM [rising, partial curve]","10 µM [rising, partial curve, poor fit]"
O=C1c2ccccc2-c2cccc(C(=O)N3CCN(C(=O)c4ccccc4)CC3)c21,"6.31 µM [falling, full curve, poor fit]","0.0251 µM [falling, full curve, poor fit]"
Nc1cc(Cl)ccc1C(=O)OCC(=O)NC1CCCCC1,"31.6 µM [falling, partial curve]","25.1 µM [falling, partial curve]"
O=C(CSc1ccccn1)N1CCc2ccccc21,"0.00447 µM [falling, full curve, poor fit]",–
CC(=O)O[C@]1(C(C)=O)CC[C@H]2[C@@H]3C[C@H](C)C4=CC(=O)CC[C@]4(C)[C@H]3CC[C@@]21C,"35.5 µM [rising, single point]","22.4 µM [rising, single point]"
CCNC(=O)/N=C1/NC(=O)C(C(C)C)O1 (stereo not given),"3.98 µM [rising, single point]",–
CCN(CC(=O)NC1CCS(=O)(=O)C1)S(=O)(=O)c1cccc(C(C)=O)c1 (stereo not given),–,"8.91 µM [falling, partial curve, poor fit]"
O=C(O)c1cc(-c2ccccc2)nc2ccccc12,"7.94 µM [falling, partial curve, poor fit]",–
COc1ccc(NC(=O)c2cc3sccc3n2Cc2ccc(F)cc2)cc1OC,"35.5 µM [falling, single point]","35.5 µM [falling, single point]"
Cc1nc(NCc2ccc3c(c2)OCO3)c2oc3ccccc3c2n1,"15.8 µM [rising, partial curve]","10 µM [rising, partial curve]"
COc1ccccc1-c1c(-c2ccc(OCC(=O)NN)cc2O)n[nH]c1C(F)(F)F,"28.2 µM [rising, single point]","12.6 µM [rising, partial curve]"
CCOC(=O)Cn1c2c(c(=N)c3c1CCC3)CCC2,"11.2 µM [rising, partial curve]","15.8 µM [rising, partial curve]"
COc1ccc(Nc2ncnc3sc(-c4ccccc4)cc23)cc1OC,"35.5 µM [rising, single point]","35.5 µM [rising, single point]"
CCOC(=O)c1[nH]cnc1C(=O)Nc1ccc(F)cc1,–,"35.5 µM [falling, single point]"
COc1ccccc1CC(=O)N1CCN(c2cccc(C(F)(F)F)c2)CC1,"8.91 µM [rising, partial curve]","0.501 µM [rising, full curve, poor fit]"
Cc1ccccc1OC1=NS(=O)(=O)c2ccccc21,"0.0141 µM [falling, full curve]",–
CCNc1ncc2nc(-c3cc(F)cc(F)c3)c(=O)n(CCc3ccccc3)c2n1,"15.8 µM [falling, partial curve]","14.1 µM [falling, partial curve]"
